Where a chain is given by its changes, count along the chain named. These are yes or no findings as the source states them, for the method shown. Some entries that bind do so weakly or less than the wild type. For part of these data: Sequences can lack the tags named with a protein.
Assays:
Peptide 54 (human) [1] = biological target: T1, Peptide 54 (human); assay: peptide ELISA, antibody 0.1 ug/ml
T1 sequence (peptide): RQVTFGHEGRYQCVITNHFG

Peptide 54 (human) [2] = biological target: T1, Peptide 54 (human); assay: peptide ELISA (Example 5, retold in Example 6)
[3] = biological target: T2, Purified human LRIG1 extracellular domain fused to a HIS tag (R&D Systems) (human) (UniProt Q96JA1); assay: biosensor binning (Gator), hLRIG1-His amine-coupled to the probe
T2 sequence: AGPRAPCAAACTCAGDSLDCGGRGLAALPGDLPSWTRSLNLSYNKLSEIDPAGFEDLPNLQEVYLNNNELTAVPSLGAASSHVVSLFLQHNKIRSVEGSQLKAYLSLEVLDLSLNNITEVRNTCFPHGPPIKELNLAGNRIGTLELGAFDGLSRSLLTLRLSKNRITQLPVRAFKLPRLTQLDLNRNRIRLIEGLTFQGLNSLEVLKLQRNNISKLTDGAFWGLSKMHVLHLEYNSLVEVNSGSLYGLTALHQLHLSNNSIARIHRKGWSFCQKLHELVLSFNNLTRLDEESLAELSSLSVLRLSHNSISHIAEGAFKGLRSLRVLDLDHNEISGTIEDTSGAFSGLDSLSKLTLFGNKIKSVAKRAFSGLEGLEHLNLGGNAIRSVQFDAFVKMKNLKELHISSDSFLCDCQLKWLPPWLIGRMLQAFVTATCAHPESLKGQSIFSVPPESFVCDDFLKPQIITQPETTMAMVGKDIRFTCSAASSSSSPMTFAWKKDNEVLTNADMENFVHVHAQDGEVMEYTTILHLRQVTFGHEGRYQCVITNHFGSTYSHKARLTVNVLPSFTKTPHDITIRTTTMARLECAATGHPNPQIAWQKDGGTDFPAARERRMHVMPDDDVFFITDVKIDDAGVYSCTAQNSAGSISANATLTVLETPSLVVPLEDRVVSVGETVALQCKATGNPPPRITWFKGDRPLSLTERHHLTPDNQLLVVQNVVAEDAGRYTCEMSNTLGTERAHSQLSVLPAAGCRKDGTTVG

Measured: binding

B1: mab4 (IMT300) (antibody, V domains shown)
VH: QVQLVQSGAEVKKPGASVKVSCKASGYTFTSYYLHWVRQAPGQRLEWMGWIYPGNVNTKYNQKFQGRVTITADKSASTAYMELSSLRSEDTAVYFCAREELGGFAYWGQGTLVTVSS
VL: DIQMTQSPSSVSASIGDRVTITCRASQDISNYLSWYQQKPGKAPKLLIYYTSILHSGVPSRFSGSGSGTDYTLTISSLQPEDFATYFCQQGNTLPRTFGGGTKVEIK
notes: also called hLRIG1 mAb IMT300; Immutics PP14384
binds: all assays above

B2: mab6 (antibody, V domains shown)
VH: B1 VH with M48I, Q62E, I70L
VL: B1 VL
notes: also called Immutics PP14387
binds: all assays above

From patent US20210085785A1 (TRUEBINDING, published 2021)
